Data on 1 molecule can be found in patent US7329638B2, “Drug delivery compositions” (priority 2003, dated 2008).

A word on the IC50: it is the concentration that gives 50% inhibition. Lower therefore signals inhibition by little substance.

The test system of this assay is MCF7 cells. The assay can be described thus: MTT cytotoxicity in doxorubicin sensitive MCF7 cells. The assay is classed as cell-based. The conditions noted are these: Homo sapiens, MCF7, 48 hrs exposure, without verapamil. On the procedure: In some embodiments, monolayer doxorubicin sensitive (MCF7) and resistant (MCF7/ADR) cells were then exposed to either doxorubicin or TAT-Dox conjugates at various concentrations (up to 100 μM) for 48 hrs in the presence or absence of 10 μM verapamil. Cell viability was measured by MTT assay. […] Verapamil, a P-glycoprotein inhibitor, was able to restore most of the cytotoxic activities of free doxorubicin.

In turn, `COc1cccc2c1C(=O)c1c(O)c3c(c(O)c1C2=O)C[C@@](O)(C(=O)CO)C[C@@H]3O[C@H]1C[C@H](N)[C@H](O)[C@H](C)O1` [Dox, doxorubicin] yielded an IC50 of 0.25 µM.
